Laboratory results taken from article PMC7819943, “Rice protein-binding microarrays: a tool to detect cis-acting elements near promoter regions in rice”.
The list shows a part of the results.

The chains behind the UniProt entries cited, without tags or fusion partners.
UniProt Q0JBA9, entry or part of it: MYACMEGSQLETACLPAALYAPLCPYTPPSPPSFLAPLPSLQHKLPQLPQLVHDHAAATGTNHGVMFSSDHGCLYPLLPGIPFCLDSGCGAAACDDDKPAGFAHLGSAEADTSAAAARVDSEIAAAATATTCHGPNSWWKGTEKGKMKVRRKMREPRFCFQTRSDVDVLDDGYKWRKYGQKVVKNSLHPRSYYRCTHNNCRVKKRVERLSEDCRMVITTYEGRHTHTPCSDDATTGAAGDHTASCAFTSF

Each sequence was assayed against OsWRKY34 (Oryza sativa, UniProt Q0JBA9 1-250) (assay: protein-binding microarray (RPBM); PBS, 2% BSA, 51.3 ng/ul salmon testes DNA, 50 uM zinc acetate, 200 nM TF, 25 C, 1 h; high values mean tight binding). Details: protein: recombinant; tags: N-terminal polyhistidine and DsRed monomer fusion (pET32a); label: CyDye5-dUTP incorporated in the synthesized complementary strand; 3' TTTTT single-stranded linker to array surface; dsDNA, one strand shown.
Method in brief: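 An Axon 4000B scanner gave the binding signal as per-feature fluorescence intensity in arbitrary units. This followed washing of a custom Agilent array that had been incubated for 1 h at 25 °C with 200 nM protein in PBS, 2% BSA, salmon testes DNA and 50 µM zinc acetate. The proteins were transcription factors fused at the N-terminus to polyhistidine and DsRed, expressed in E. coli BL21-CodonPlus and purified on Ni–NTA.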
“CTGAACCCTACCCCTTTGACTCATCCTGTCATCCCCATGACGGAGTCACCTAGTGCAG” was tested, and the binding signal was 9600 fluorescence intensity (a.u.).
With “TCGCATTAGCTTTGTCTCTGTCGTTTCCACATCCTTTGTTCGGAGTCACCTAGTGCAG” the binding signal was 9630 fluorescence intensity (a.u.).
For “CTTCACTCTTGATTCAAAAGGTTTTATTTTTTTTTCTGGTCGGAGTCACCTAGTGCAG”, the binding signal was 8530 fluorescence intensity (a.u.).
In the case of “TATTAAACTCCATTCTCTGCAGTGCCATTGCCTCCATTTCCGGAGTCACCTAGTGCAG”, the binding signal is reported as 9630 fluorescence intensity (a.u.).
In the case of “TTTCTCATGCATCGACCACTTTCTGTTTCATCTCCTGAAACGGAGTCACCTAGTGCAG”, the binding signal is reported as 9720 fluorescence intensity (a.u.).
With “GATTTGATTTTTTTTTCACGGAGTGAGTATTGCTTATATACGGAGTCACCTAGTGCAG” the binding signal was 8200 fluorescence intensity (a.u.).
“CATTTCCCTACAGTACATATAACTAGATAGTATCTCTTCGCGGAGTCACCTAGTGCAG” was tested, and the binding signal was 9440 fluorescence intensity (a.u.).
For “CATCACTTTTTTGTTGTTTTTTTCGCTCACTTGCCACTTTCGGAGTCACCTAGTGCAG”, the binding signal was 10200 fluorescence intensity (a.u.).
In the case of “TCCTCTACCACCTCCGCCGCTGCTCGTCGTCACCGACCTCCGGAGTCACCTAGTGCAG”, the binding signal is reported as 10900 fluorescence intensity (a.u.).
In the case of “AACTCGCTCTCCGGGTAGAGTACACGTCACCACCCGACTCCGGAGTCACCTAGTGCAG”, the binding signal is reported as 8310 fluorescence intensity (a.u.).
For “CTGCTTCTTTTGTTTGGTTGGTTTCAGGGCTTCGTGGCCACGGAGTCACCTAGTGCAG”, the binding signal was 17800 fluorescence intensity (a.u.).
With “ATCGACCATCCACACGCACGCACTTATACAATTTGGTTTCCGGAGTCACCTAGTGCAG” the binding signal was 12200 fluorescence intensity (a.u.).
“GGCACATCTCCGGCGCCCACCTCAACCCGTCGCTCACCATCGGAGTCACCTAGTGCAG” was tested, and the binding signal was 8120 fluorescence intensity (a.u.).
In the case of “TCGAAACTTTCCTACACACGTAAACTTCCAACTTTTCCGTCGGAGTCACCTAGTGCAG”, the binding signal is reported as 8620 fluorescence intensity (a.u.).
In the case of “GCCTGTCCCCGCGGCGTCTCCTTCTGGCCTTGCAGCTTTACGGAGTCACCTAGTGCAG”, the binding signal is reported as 10900 fluorescence intensity (a.u.).
With “CCAGCCGCCATCCCGGCTTTGACGACCACCATCCGGAGCACGGAGTCACCTAGTGCAG” the binding signal was 8030 fluorescence intensity (a.u.).
With “GCCTCACTAGCTCACTCCCACTCCGCCATCCACTCCCACTCGGAGTCACCTAGTGCAG” the binding signal was 10100 fluorescence intensity (a.u.).
“AATATTTAGTACTCTCTTCATTAAATTTGATTTTCAAATTCGGAGTCACCTAGTGCAG” was tested, and the binding signal was 11300 fluorescence intensity (a.u.).
With “TTTCATGGATAACACGTGCACTACATTCTTGCCTGTTCCACGGAGTCACCTAGTGCAG” the binding signal was 10200 fluorescence intensity (a.u.).
For “TTTCTTTTTCAGCATTGACTTTTAAGTCACCAAGAACACACGGAGTCACCTAGTGCAG”, the binding signal was 8060 fluorescence intensity (a.u.).
“TGCCACTGGAATTTTGTAAAATTGGATCAATGTCATCGCCCGGAGTCACCTAGTGCAG” was tested, and the binding signal was 8280 fluorescence intensity (a.u.).
For “ACGACATTAATGCTTTCCCCACATTTCTCTCTCAGACTCTCGGAGTCACCTAGTGCAG”, the binding signal was 8120 fluorescence intensity (a.u.).
For “TACACGCCACAGTTTGTTCCACCGAAGCTGCACATTTCACCGGAGTCACCTAGTGCAG”, the binding signal was 9980 fluorescence intensity (a.u.).
In the case of “CTTCTTCCATCCTAATCACCGCATTCCAGTACTATCCATACGGAGTCACCTAGTGCAG”, the binding signal is reported as 11900 fluorescence intensity (a.u.).
With “TATCCCGTTTCTCTGTCTTTTGCTCCCCGGCGCGCGCCAGCGGAGTCACCTAGTGCAG” the binding signal was 13300 fluorescence intensity (a.u.).
In the case of “AATATCTTGCGTGCTGGCTTTTCGTAAAGTTAAATCCTTTCGGAGTCACCTAGTGCAG”, the binding signal is reported as 8430 fluorescence intensity (a.u.).
“CGCTTTGTTAGCATTGTAGGGGAGGGATAGTTTGCATATCCGGAGTCACCTAGTGCAG” was tested, and the binding signal was 11200 fluorescence intensity (a.u.).
“CCTTGCTAGGAGGACGAACGCCGGCGGCGGGGAGGGGATGCGGAGTCACCTAGTGCAG” was tested, and the binding signal was 10400 fluorescence intensity (a.u.).
With “ACCGCCTACCGCATCTCCTCGCGTTCACACCACGCACCCGCGGAGTCACCTAGTGCAG” the binding signal was 10600 fluorescence intensity (a.u.).
“GCCTCAACATGTCGCCACCCGTTGTTTCCACGGCCTTTTCCGGAGTCACCTAGTGCAG” was tested, and the binding signal was 11100 fluorescence intensity (a.u.).
“AGGCTGAGCGAATGTTTTGTTTGTTTTGCTCGTCAATTCTCGGAGTCACCTAGTGCAG” was tested, and the binding signal was 8790 fluorescence intensity (a.u.).
With “TCTAGTCACCTTCTCACATGGTATCCCGACCGCAATAGACCGGAGTCACCTAGTGCAG” the binding signal was 8460 fluorescence intensity (a.u.).
In the case of “GTTCCTTTGCTTGTTCTTGGCAAACTAAGCTTGCTTGCTACGGAGTCACCTAGTGCAG”, the binding signal is reported as 10600 fluorescence intensity (a.u.).
In the case of “CCATTTTCTTCTTCCCTTTTTTACTTTCTCTCTCTTGCATCGGAGTCACCTAGTGCAG”, the binding signal is reported as 8970 fluorescence intensity (a.u.).
For “CACCGGCACGAGCTCGCCGCGCTTTCCATTATTAGCCGCTCGGAGTCACCTAGTGCAG”, the binding signal was 8450 fluorescence intensity (a.u.).
In the case of “CCGCCGCCCTCGCCGCTGCCACGCCGCCGCCGCCGCCCTTCGGAGTCACCTAGTGCAG”, the binding signal is reported as 8780 fluorescence intensity (a.u.).
In the case of “AGAAGTCTAGCTGTCTCGAGGCCACACAACTCACCAGTTTCGGAGTCACCTAGTGCAG”, the binding signal is reported as 8610 fluorescence intensity (a.u.).
In the case of “AACTAGTATATCTCTCGCTTCTCTCTATCATTCTCCGTTGCGGAGTCACCTAGTGCAG”, the binding signal is reported as 10100 fluorescence intensity (a.u.).
With “GATGTCCCTGTCTTGCTTCTCATCACCTGCACCCACCACACGGAGTCACCTAGTGCAG” the binding signal was 9130 fluorescence intensity (a.u.).
“CATTATCGTCGTCGTCGTCGTCGTAGTCATGTCGTGGGGCCGGAGTCACCTAGTGCAG” was tested, and the binding signal was 8180 fluorescence intensity (a.u.).
“CTAGTTGGTCTAGGTTCGAAATCTCACCCCTTTTATTTATCGGAGTCACCTAGTGCAG” was tested, and the binding signal was 8900 fluorescence intensity (a.u.).
For “ATTAAACATATGATCTTTTTGTGTGTTTTGAGTGTTAGTTCGGAGTCACCTAGTGCAG”, the binding signal was 9160 fluorescence intensity (a.u.).
In the case of “CTTACAGTTTTATTACTCGTGCTGACGTAGATAATCTTATCGGAGTCACCTAGTGCAG”, the binding signal is reported as 9900 fluorescence intensity (a.u.).
In the case of “CTCTTCTTCGTTATGGTCCTTATGGTCAATCTGAATTAAACGGAGTCACCTAGTGCAG”, the binding signal is reported as 9480 fluorescence intensity (a.u.).
With “GGGTGCTAATTCGGTTATTCCTTTCTTAATTGCTACTTCCCGGAGTCACCTAGTGCAG” the binding signal was 8140 fluorescence intensity (a.u.).
“TCTCCTATCTTTGCTCCCGTGCTCACGCCGCCCCGCCCTTCGGAGTCACCTAGTGCAG” was tested, and the binding signal was 8620 fluorescence intensity (a.u.).
With “GCCGCGGCGGAGCTCCCGTTTCCGTTGCCGTCTCCGGCGCCGGAGTCACCTAGTGCAG” the binding signal was 11000 fluorescence intensity (a.u.).
For “TCTTCTTCCTCACTCGCTGCCCACTCATTGGGAAAAATCCCGGAGTCACCTAGTGCAG”, the binding signal was 10300 fluorescence intensity (a.u.).
For “ATCCTTGTCTTTTGTCTGTTTTGATATCGTACTACGTAGACGGAGTCACCTAGTGCAG”, the binding signal was 11200 fluorescence intensity (a.u.).
In the case of “ATCCATACTACATCATCCATATACCATCATCCTATATTTTCGGAGTCACCTAGTGCAG”, the binding signal is reported as 9020 fluorescence intensity (a.u.).
For “TCCAATGTTCCCTAATCAATTTCATCTACTTTTTTAATACCGGAGTCACCTAGTGCAG”, the binding signal was 8140 fluorescence intensity (a.u.).
For “GTTATGGCCTTATTTTTAAGTGAACTATCCTGTCAATGTCCGGAGTCACCTAGTGCAG”, the binding signal was 8170 fluorescence intensity (a.u.).
In the case of “CGTTTGCTACAAATTCAGGCCCATATCATCGTTCATGTCACGGAGTCACCTAGTGCAG”, the binding signal is reported as 11600 fluorescence intensity (a.u.).
“TTTCTTTCTAATTTTTTTAATCTTTCGCACACCTCTTTATCGGAGTCACCTAGTGCAG” was tested, and the binding signal was 9800 fluorescence intensity (a.u.).
